Experimental data: article PMC12900694
These are yes or no findings as the source states them, for the method shown. In cells and extracts the contact can be indirect. Some results given as binding are weak or reduced against the parent protein; the word gives no strength.

Protein sequences, listed by entry. Tags and fused reporters are not part of them.
UniProt Q96PU5: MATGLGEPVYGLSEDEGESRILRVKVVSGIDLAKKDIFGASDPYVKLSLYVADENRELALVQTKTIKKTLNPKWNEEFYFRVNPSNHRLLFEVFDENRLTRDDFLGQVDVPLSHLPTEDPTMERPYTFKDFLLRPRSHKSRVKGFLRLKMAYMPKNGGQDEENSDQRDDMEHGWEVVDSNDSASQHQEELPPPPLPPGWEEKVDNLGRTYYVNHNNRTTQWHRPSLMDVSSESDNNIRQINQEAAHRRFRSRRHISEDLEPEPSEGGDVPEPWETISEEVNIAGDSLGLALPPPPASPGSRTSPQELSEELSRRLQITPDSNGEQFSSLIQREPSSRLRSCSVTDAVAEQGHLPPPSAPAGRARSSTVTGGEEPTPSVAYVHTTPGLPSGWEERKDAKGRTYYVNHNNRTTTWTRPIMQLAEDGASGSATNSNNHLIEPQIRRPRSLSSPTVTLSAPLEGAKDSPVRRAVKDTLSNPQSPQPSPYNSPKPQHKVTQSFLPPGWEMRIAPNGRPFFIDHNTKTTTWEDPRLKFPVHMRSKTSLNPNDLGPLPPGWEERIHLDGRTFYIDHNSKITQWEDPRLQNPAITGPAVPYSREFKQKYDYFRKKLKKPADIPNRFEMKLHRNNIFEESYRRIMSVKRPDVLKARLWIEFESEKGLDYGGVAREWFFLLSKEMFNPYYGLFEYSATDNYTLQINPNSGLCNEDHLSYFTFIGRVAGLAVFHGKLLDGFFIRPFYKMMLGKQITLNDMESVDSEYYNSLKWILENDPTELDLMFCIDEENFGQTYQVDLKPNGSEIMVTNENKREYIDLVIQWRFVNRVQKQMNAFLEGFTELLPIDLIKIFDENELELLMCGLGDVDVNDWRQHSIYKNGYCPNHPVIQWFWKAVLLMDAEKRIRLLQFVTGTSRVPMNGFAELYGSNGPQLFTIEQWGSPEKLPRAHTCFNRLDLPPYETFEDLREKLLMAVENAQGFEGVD
UniProt P68104: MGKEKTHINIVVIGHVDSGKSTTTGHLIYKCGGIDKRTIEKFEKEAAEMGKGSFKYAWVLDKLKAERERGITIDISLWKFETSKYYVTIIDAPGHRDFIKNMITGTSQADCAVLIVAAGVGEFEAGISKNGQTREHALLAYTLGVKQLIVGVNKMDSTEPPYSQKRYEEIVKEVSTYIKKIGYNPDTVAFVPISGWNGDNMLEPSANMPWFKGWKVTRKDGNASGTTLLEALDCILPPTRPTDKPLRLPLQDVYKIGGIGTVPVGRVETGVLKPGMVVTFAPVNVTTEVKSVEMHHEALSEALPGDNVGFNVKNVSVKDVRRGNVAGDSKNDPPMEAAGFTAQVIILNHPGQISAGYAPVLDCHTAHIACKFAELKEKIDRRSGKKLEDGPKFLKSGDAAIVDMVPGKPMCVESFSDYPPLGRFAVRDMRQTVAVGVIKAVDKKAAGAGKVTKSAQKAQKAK

Experiments:
Flag-NEDD4L = Flag-NEDD4L (UniProt Q96PU5); test: co-IP; HEK293T cells co-transfected with Flag-NEDD4L and HA-eEF1A1 for 24 h; lysates immunoprecipitated with anti-Flag, blotted with anti-HA
[1] = molecular target: NEDD4L (endogenous, HUVECs) (human (endogenous in HUVECs)) (UniProt Q96PU5); test: co-IP; HUVEC whole-cell lysates, with or without si-NEDD4L for 24 h; IP with anti-NEDD4L or anti-eEF1A1, protein A-agarose, washed with IPH buffer at 4°C; blotted for eEF1A1 and NEDD4L

| binding (Flag-NEDD4L) | binding [1] | Substance |
| --- | --- | --- |
| binds | – | HA-eEF1A1 (from UniProt P68104 1-462) |
| – | binds | eEF1A1 (endogenous, HUVECs) (from UniProt P68104 1-462) |
